{"source": "PubChem BioAssay AID1224828 (NIAID, 2016)", "test": "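Regulators linking TLR4 signalling to p65 nuclear translocation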 (primary screen)", "cells": "mouse RAW264.7 G9 macrophage reporter cells (GFP-p65, Tnf promoter-mCherry)", "reagent": "siRNA pool against mouse genes, 100 nM", "duration": "2 days siRNA transfection, then 40 min LPS before fixation", "challenge": "LPS (Salmonella minnesota R595) at 10 ng/ml", "measured": "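Imaged p65 nuclear translocation ratio, normalised to the plate median, converted to robust z-scores and averaged across two replicates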", "scale": "p65 translocation robust z-score: higher = more nuclear NF-kappaB p65 after LPS than the plate median; nuclear/cytoplasmic p65 ratio: higher = more nuclear NF-kappaB p65", "active means": "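Called active when z exceeds 3.3 or falls under -1.56 (median of Tlr4 controls), giving activity score of at least 50; no calls for control wells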", "calls": "active = hit (p65 shift raised or lowered); inactive = no clear change", "note": "The deposit covers about 17,000 reagents; below is an unselected part. Over the whole deposit, 762 (4.5%) were called active. 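Active calls include both raised and lowered p65 entry, mostly lowered; wells with fewer than 50 cells lack a z-score.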 Raw values vary from plate to plate and are shown uncorrected. No sequences are given here."}
{"gene knocked down": "Clba1 (GeneID 217887)", "p65 translocation robust z-score": 0.72, "nuclear/cytoplasmic p65 ratio, rep 1": 1.7, "nuclear/cytoplasmic p65 ratio, rep 2": 1.95, "low cell count flag": "enough cells to score", "Call": "inactive"}
{"gene knocked down": "Actr1b (GeneID 226977)", "p65 translocation robust z-score": -0.57, "nuclear/cytoplasmic p65 ratio, rep 1": 1.53, "nuclear/cytoplasmic p65 ratio, rep 2": 1.54, "low cell count flag": "enough cells to score", "Call": "inactive"}
{"gene knocked down": "Vmn1r58 (GeneID 81014)", "p65 translocation robust z-score": 0.62, "nuclear/cytoplasmic p65 ratio, rep 1": 1.44, "nuclear/cytoplasmic p65 ratio, rep 2": 1.3, "low cell count flag": "enough cells to score", "Call": "inactive"}
{"gene knocked down": "Zfp84 (GeneID 74352)", "p65 translocation robust z-score": 0.9, "nuclear/cytoplasmic p65 ratio, rep 1": 1.59, "nuclear/cytoplasmic p65 ratio, rep 2": 1.3, "low cell count flag": "enough cells to score", "Call": "inactive"}
{"gene knocked down": "Aarsd1 (GeneID 69684)", "p65 translocation robust z-score": 1.41, "nuclear/cytoplasmic p65 ratio, rep 1": 1.61, "nuclear/cytoplasmic p65 ratio, rep 2": 1.41, "low cell count flag": "enough cells to score", "Call": "inactive"}
{"gene knocked down": "Slc25a5 (GeneID 11740)", "p65 translocation robust z-score": -0.2, "nuclear/cytoplasmic p65 ratio, rep 1": 1.56, "nuclear/cytoplasmic p65 ratio, rep 2": 1.42, "low cell count flag": "enough cells to score", "Call": "inactive"}
{"gene knocked down": "Aamp (GeneID 227290)", "p65 translocation robust z-score": -0.23, "nuclear/cytoplasmic p65 ratio, rep 1": 1.51, "nuclear/cytoplasmic p65 ratio, rep 2": 1.65, "low cell count flag": "enough cells to score", "Call": "inactive"}
{"gene knocked down": "Calm4 (GeneID 80796)", "p65 translocation robust z-score": -0.78, "nuclear/cytoplasmic p65 ratio, rep 1": 1.47, "nuclear/cytoplasmic p65 ratio, rep 2": 1.52, "low cell count flag": "enough cells to score", "Call": "inactive"}
{"gene knocked down": "Cmss1 (GeneID 66497)", "p65 translocation robust z-score": -2.03, "nuclear/cytoplasmic p65 ratio, rep 1": 1.16, "nuclear/cytoplasmic p65 ratio, rep 2": 1.16, "low cell count flag": "enough cells to score", "Call": "active"}
{"gene knocked down": "Ovca2 (GeneID 246257)", "p65 translocation robust z-score": 1.04, "nuclear/cytoplasmic p65 ratio, rep 1": 1.61, "nuclear/cytoplasmic p65 ratio, rep 2": 1.53, "low cell count flag": "enough cells to score", "Call": "inactive"}
{"gene knocked down": "Ndufc1 (GeneID 66377)", "p65 translocation robust z-score": -0.89, "nuclear/cytoplasmic p65 ratio, rep 1": 1.63, "nuclear/cytoplasmic p65 ratio, rep 2": 1.47, "low cell count flag": "enough cells to score", "Call": "inactive"}
{"gene knocked down": "Cdc23 (GeneID 52563)", "p65 translocation robust z-score": 0.57, "nuclear/cytoplasmic p65 ratio, rep 1": 1.69, "nuclear/cytoplasmic p65 ratio, rep 2": 1.32, "low cell count flag": "enough cells to score", "Call": "inactive"}
{"gene knocked down": "Cd164 (GeneID 53599)", "p65 translocation robust z-score": 0.03, "nuclear/cytoplasmic p65 ratio, rep 1": 1.39, "nuclear/cytoplasmic p65 ratio, rep 2": 1.38, "low cell count flag": "enough cells to score", "Call": "inactive"}

Copied from the entries so far (2 entries):
{"gene knocked down": "Vmn1r58 (GeneID 81014)", "p65 translocation robust z-score": 0.62, "nuclear/cytoplasmic p65 ratio, rep 1": 1.44, "nuclear/cytoplasmic p65 ratio, rep 2": 1.3, "low cell count flag": "enough cells to score", "Call": "inactive"}
{"gene knocked down": "Zfp84 (GeneID 74352)", "p65 translocation robust z-score": 0.9, "nuclear/cytoplasmic p65 ratio, rep 1": 1.59, "nuclear/cytoplasmic p65 ratio, rep 2": 1.3, "low cell count flag": "enough cells to score", "Call": "inactive"}

Additional results follow.
{"gene knocked down": "Tfeb (GeneID 21425)", "p65 translocation robust z-score": -0.3, "nuclear/cytoplasmic p65 ratio, rep 1": 1.46, "nuclear/cytoplasmic p65 ratio, rep 2": 1.49, "low cell count flag": "enough cells to score", "Call": "inactive"}
{"gene knocked down": "Pgap1 (GeneID 241062)", "p65 translocation robust z-score": 0.6, "nuclear/cytoplasmic p65 ratio, rep 1": 1.67, "nuclear/cytoplasmic p65 ratio, rep 2": 1.62, "low cell count flag": "enough cells to score", "Call": "inactive"}
{"gene knocked down": "Slc22a22 (GeneID 210463)", "p65 translocation robust z-score": -0.25, "nuclear/cytoplasmic p65 ratio, rep 1": 1.61, "nuclear/cytoplasmic p65 ratio, rep 2": 1.73, "low cell count flag": "enough cells to score", "Call": "inactive"}
{"gene knocked down": "Hgs (GeneID 15239)", "p65 translocation robust z-score": 1.4, "nuclear/cytoplasmic p65 ratio, rep 1": 1.9, "nuclear/cytoplasmic p65 ratio, rep 2": 1.71, "low cell count flag": "enough cells to score", "Call": "inactive"}
{"gene knocked down": "Klf1 (GeneID 16596)", "p65 translocation robust z-score": 1.01, "nuclear/cytoplasmic p65 ratio, rep 1": 1.69, "nuclear/cytoplasmic p65 ratio, rep 2": 1.44, "low cell count flag": "enough cells to score", "Call": "inactive"}
{"gene knocked down": "Dok3 (GeneID 27261)", "p65 translocation robust z-score": 1.07, "nuclear/cytoplasmic p65 ratio, rep 1": 1.78, "nuclear/cytoplasmic p65 ratio, rep 2": 1.83, "low cell count flag": "enough cells to score", "Call": "inactive"}
{"gene knocked down": "Arhgap29 (GeneID 214137)", "p65 translocation robust z-score": -0.34, "nuclear/cytoplasmic p65 ratio, rep 1": 1.6, "nuclear/cytoplasmic p65 ratio, rep 2": 1.52, "low cell count flag": "enough cells to score", "Call": "inactive"}
{"gene knocked down": "Gabarap (GeneID 56486)", "p65 translocation robust z-score": -0.62, "nuclear/cytoplasmic p65 ratio, rep 1": 1.35, "nuclear/cytoplasmic p65 ratio, rep 2": 1.29, "low cell count flag": "enough cells to score", "Call": "inactive"}
